# Source: patent US20040115660A1 (published 2004)
# The chains behind the UniProt entries cited, without tags or fusion partners. Residues count along the entry.
# UniProt Q01887, residues 35-594: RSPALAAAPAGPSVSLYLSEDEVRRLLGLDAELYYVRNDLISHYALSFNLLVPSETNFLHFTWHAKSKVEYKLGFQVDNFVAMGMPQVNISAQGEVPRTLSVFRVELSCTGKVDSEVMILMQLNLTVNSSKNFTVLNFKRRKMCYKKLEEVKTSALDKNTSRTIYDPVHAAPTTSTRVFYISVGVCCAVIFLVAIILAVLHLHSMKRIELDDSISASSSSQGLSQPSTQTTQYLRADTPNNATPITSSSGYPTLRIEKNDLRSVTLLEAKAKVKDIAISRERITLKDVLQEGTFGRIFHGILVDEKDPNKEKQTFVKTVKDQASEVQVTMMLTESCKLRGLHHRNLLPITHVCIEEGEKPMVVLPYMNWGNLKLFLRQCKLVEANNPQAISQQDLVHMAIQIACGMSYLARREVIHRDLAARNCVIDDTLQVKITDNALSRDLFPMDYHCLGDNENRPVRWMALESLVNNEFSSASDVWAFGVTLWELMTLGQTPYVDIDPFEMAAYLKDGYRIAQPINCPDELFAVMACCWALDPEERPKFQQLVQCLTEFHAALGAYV
# UniProt Q15375, residues 28-998: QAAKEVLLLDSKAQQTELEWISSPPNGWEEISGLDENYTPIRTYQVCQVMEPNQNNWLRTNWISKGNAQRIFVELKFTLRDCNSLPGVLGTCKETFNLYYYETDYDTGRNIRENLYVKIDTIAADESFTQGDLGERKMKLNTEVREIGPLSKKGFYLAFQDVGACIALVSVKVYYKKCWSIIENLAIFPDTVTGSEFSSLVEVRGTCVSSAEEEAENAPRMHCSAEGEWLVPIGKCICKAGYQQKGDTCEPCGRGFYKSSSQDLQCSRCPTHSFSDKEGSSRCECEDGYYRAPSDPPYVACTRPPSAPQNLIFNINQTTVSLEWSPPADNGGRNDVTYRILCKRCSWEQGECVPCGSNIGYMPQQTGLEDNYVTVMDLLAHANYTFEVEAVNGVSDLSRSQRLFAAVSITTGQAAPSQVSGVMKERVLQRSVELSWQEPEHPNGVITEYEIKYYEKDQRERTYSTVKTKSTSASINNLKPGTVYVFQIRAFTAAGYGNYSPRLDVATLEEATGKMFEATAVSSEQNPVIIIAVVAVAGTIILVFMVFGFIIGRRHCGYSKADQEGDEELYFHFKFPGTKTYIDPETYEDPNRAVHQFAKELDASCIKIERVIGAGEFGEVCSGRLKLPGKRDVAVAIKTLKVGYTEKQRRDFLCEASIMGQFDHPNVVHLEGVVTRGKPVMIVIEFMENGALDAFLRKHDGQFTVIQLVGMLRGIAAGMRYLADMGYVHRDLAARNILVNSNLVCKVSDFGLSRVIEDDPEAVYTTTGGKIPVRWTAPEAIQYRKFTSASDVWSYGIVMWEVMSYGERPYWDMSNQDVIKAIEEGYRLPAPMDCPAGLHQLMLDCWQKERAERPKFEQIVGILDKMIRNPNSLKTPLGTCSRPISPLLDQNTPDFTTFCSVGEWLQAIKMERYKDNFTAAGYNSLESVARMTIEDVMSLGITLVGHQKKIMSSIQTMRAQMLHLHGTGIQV
# UniProt P54763, residues 19-986: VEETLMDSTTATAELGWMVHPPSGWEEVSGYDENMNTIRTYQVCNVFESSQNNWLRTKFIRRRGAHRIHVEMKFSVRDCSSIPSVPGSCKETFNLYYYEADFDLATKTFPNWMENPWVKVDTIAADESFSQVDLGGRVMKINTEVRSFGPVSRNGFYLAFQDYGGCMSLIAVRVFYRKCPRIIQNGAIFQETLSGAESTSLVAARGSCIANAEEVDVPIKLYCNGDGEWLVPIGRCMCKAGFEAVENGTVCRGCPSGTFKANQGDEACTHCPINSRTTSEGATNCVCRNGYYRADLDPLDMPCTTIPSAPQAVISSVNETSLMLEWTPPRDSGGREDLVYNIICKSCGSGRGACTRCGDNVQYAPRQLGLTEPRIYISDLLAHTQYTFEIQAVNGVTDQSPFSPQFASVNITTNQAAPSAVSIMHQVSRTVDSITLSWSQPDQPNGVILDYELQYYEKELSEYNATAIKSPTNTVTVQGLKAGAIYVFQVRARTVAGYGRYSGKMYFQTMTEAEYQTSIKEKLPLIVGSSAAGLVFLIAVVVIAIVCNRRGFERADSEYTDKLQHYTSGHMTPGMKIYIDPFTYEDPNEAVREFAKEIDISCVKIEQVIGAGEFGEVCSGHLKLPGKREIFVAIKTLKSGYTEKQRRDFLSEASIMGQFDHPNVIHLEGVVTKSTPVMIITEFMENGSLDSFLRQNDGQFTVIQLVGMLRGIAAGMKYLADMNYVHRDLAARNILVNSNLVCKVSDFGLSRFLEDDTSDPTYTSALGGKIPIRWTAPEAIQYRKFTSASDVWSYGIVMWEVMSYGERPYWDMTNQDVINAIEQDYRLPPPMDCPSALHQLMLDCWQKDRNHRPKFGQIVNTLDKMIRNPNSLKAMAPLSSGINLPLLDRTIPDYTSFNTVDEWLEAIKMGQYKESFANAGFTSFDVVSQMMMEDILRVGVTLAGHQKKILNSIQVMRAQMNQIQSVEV
# UniProt Q9QZQ1, residues 1007-1093: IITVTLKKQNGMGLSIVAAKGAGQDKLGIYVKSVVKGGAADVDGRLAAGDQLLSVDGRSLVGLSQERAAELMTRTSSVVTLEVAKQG
# UniProt P54754, residues 30-993: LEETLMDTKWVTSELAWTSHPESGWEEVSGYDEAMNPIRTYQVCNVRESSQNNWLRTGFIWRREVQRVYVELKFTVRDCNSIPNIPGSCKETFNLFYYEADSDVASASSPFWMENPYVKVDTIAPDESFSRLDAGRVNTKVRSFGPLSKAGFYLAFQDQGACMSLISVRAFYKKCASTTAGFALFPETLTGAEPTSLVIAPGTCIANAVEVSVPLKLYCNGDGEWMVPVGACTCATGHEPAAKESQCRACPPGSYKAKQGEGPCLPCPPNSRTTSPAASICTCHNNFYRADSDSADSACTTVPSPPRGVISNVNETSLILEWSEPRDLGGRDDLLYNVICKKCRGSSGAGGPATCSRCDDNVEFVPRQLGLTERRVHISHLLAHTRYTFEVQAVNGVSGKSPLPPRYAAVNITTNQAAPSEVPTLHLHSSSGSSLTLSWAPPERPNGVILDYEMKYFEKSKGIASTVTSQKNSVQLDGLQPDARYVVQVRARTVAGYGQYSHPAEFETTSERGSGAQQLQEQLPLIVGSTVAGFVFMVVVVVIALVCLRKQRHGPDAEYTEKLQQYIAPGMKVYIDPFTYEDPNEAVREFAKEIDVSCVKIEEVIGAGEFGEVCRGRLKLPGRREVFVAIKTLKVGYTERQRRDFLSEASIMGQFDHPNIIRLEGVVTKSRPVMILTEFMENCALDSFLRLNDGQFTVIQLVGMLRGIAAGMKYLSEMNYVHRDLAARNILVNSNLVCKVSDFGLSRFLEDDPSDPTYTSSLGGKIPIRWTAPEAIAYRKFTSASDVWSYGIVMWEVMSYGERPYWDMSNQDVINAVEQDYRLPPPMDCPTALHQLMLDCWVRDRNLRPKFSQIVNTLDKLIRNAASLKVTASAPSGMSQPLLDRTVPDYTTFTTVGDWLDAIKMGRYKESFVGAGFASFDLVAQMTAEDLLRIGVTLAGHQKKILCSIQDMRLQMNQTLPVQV
# These are yes or no findings as the source states them, for the method shown. For some of these results: Binding seen in cells or lysates may run through a third protein. Some entries that bind do so weakly or less than the wild type.
# What was measured:
# [1] = target: Myc2.RYK (double Myc epitope-tagged mouse RYK) (mouse) (UniProt Q01887); test: co-immunoprecipitation from transfected 293T cells, Western blot (FIG. 3a)
# [2] = target: Myc2.RYK (double Myc epitope-tagged mouse RYK) (mouse) (UniProt Q01887); test: co-immunoprecipitation from cotransfected 293T cells, Western blot
# [3] = target: endogenous mouse RYK (mouse) (UniProt Q01887); test: anti-RYK immunoprecipitation from 13.5 dpc mouse head lysates, Western blot
# [4] = target: endogenous mouse RYK (mouse) (UniProt Q01887); test: co-immunoprecipitation from mouse tissue lysates (FIG. 3d)
# [5] = target: endogenous mouse RYK (mouse) (UniProt Q01887); test: blot overlay with GST.AF-6.PDZ at about 5 ug/mL, detected with anti-GST (FIG. 1e)
substance,measurement,setting,value
human EphA7 (from UniProt Q15375 28-998) (receptor),binding,[1],binds
same,binding,[2],binds
endogenous mouse EphB2 (from UniProt P54763 19-986) (receptor),binding,[3],binds
same,binding,[4],binds
GST.AF-6.PDZ (glutathione S-transferase fusion with the PDZ domain of mouse AF-6) (from UniProt Q9QZQ1 1007-1093),binding,[5],binds
endogenous mouse EphB3 (from UniProt P54754 30-993) (receptor),binding,[3],binds
same,binding,[4],binds
